Assay results taken from publication PMC2637979.
Results are given in words; binding and its absence hold for the method and conditions named. Binding seen in cells or lysates may run through a third protein. Here binding means that the protein was enriched with, or labelled near, the bait; the list need not be complete.

The chains behind the UniProt entries cited, without tags or fusion partners.
UniProt P19525: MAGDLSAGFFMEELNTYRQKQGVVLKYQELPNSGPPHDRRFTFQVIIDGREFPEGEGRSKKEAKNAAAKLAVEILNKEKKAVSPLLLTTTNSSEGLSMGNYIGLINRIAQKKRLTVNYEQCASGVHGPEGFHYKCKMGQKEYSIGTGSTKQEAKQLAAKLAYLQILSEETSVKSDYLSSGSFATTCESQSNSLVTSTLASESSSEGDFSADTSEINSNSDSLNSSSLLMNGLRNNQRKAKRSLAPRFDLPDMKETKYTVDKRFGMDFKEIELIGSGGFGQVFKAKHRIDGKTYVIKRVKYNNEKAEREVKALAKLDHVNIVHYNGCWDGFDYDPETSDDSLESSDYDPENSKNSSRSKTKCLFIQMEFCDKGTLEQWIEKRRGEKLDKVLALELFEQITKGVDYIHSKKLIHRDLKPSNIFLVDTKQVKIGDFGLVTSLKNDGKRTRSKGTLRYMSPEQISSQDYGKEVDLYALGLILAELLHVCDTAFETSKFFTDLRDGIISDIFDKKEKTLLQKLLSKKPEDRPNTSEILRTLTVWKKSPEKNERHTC
UniProt O70133: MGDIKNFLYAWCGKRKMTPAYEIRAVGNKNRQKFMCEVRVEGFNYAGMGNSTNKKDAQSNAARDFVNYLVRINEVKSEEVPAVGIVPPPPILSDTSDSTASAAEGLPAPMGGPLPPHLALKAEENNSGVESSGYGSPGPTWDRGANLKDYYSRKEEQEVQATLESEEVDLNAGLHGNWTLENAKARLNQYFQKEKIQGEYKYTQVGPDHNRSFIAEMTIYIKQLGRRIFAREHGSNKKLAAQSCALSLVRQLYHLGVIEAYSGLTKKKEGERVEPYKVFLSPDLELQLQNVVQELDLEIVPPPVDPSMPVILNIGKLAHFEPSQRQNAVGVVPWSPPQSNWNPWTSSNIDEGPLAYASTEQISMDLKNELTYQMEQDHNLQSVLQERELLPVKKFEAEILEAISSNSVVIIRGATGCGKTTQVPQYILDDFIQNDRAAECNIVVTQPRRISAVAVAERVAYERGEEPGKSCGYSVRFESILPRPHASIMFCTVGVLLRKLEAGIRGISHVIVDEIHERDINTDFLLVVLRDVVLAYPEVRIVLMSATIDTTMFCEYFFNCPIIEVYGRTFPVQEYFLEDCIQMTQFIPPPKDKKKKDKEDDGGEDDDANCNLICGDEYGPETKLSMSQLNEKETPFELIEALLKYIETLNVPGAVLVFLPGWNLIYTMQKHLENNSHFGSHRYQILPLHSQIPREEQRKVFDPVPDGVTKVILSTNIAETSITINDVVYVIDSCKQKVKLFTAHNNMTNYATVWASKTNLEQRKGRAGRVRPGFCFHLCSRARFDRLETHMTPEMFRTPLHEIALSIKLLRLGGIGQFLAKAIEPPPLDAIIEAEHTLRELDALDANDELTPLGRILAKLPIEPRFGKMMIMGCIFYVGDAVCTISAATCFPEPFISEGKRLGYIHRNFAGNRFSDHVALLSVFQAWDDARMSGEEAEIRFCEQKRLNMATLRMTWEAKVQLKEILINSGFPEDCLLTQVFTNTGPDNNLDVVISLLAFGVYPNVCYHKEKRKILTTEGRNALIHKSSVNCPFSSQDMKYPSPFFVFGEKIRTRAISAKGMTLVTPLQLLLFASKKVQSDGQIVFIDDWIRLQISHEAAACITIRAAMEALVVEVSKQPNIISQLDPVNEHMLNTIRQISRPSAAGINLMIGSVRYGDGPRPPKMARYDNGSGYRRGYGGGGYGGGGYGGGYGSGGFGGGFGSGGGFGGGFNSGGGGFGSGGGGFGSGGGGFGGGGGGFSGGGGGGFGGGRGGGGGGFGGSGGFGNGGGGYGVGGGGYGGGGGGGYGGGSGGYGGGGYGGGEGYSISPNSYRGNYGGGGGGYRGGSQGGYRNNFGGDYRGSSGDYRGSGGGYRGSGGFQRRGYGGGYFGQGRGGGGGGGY

Target: human PKR (double-stranded RNA-activated protein kinase R) expressed in pkr-null MEFs (human) (UniProt P19525)
Test: affinity purification with mass spectrometry; immunoprecipitation with mouse monoclonal anti-PKR from pkr-null MEFs expressing human PKR, stimulated with pIC; silver-stained 140 kDa band analysed by mass spectrometry

binding: binds
Substance: murine RNA helicase A (RHA), endogenous in MEFs (from UniProt O70133 1-1380) (enzyme)
